Reference: PubChem BioAssay AID330 (DTP/NCI, 2004)
The list does not hold the whole screen: it gathers tests that were run many times, whatever their T/C, doses with no T/C, and many T/C values between a quarter and a half above the control. Other doses and runs of a compound stand elsewhere. T/C: endpoint of the treated group in % of that of the vehicle group. Some doses have a count of surviving animals in place of a T/C: the source holds a T/C of zero for them, seemingly a mark for toxic or unscored doses. Some doses without a T/C left all or most animals alive at the check, yet need not have been tolerated: the source hardly ever lists a survival T/C far under the control, and the zero likely stands for such cases as well. Survivors were counted at the toxicity check, usually on the fifth day, unless a day is given; later deaths do not show. Schedule codes are those of the source, taken here to give the interval after Q, in days (D) or hours (H), and the number of doses after X. Additions like (4×) stand for listed records that agree. Some entries were tested several times; the values are given in rising order. Where survival is the endpoint, this PubChem deposit counts one and a half times the control or more as active, and values a quarter to a half above the control carry no call in these data; other NCI protocols may use other cut-offs. Some T/C values are followed by the survivors on the day toxicity was checked, most often the fifth; without a count, all were alive then.

System: P388 leukemia ip, CD2F1 mice, survival T/C
Test: NCI In Vivo Anticancer Drug Screen. Data for tumor model P388 Leukemia (intraperitoneal) in CD2F1 (CDF1) mice
Conditions: T/C endpoint: median survival time, higher T/C = longer survival
[1] = dose: 200.0 mg/kg/injection, schedule: Q01DX009 (ip), vehicle: saline with Tween-80
[2] = dose: 50.0 mg/kg/injection, schedule: Q01DX009 (ip), vehicle: saline with Tween-80
[3] = dose: 100.0 mg/kg/injection, schedule: Q01DX009 (ip), vehicle: saline with Tween-80
[4] = dose: 240.0 mg/kg/injection, schedule: Q01DX005 (ip), vehicle: saline with Tween-80
[5] = dose: 12.5 mg/kg/injection, schedule: Q01DX009 (ip), vehicle: other
[6] = dose: 200.0 mg/kg/injection, schedule: Q01DX009 (ip), vehicle: saline
[7] = dose: 200.0 mg/kg/injection, schedule: Q04DX003 (ip), vehicle: saline with Tween-80
[8] = dose: 200.0 mg/kg/injection, schedule: Q01DX005 (ip), vehicle: saline with Tween-80
[9] = dose: 25.0 mg/kg/injection, schedule: Q01DX005 (ip), vehicle: saline with Tween-80
[10] = dose: 50.0 mg/kg/injection, schedule: Q01DX005 (ip), vehicle: saline with Tween-80

With `NC1CCc2cc(O)c(O)cc2C1` (configuration not stated) the T/C (dose: 400.0 mg/kg/injection, schedule: Q04DX002 (ip), vehicle: saline) was 125 % of control.
In the case of `O=c1c2ccccc2sc2cccc(Sc3ccccc3)c12`, the survivor count [1] is reported as 5 of 6 and the survivor count (dose: 400.0 mg/kg/injection, schedule: Q01DX009 (ip), vehicle: saline with Tween-80) is reported as 6 of 6.
`COC1=C(C2=C(OC)C(=O)c3cc4c(c(O)c3C2=O)C(=O)OC(C)C4)C(=O)c2c(cc3c(c2O)C(=O)OC(C)C3)C1=O` (configuration not stated) was tested, and the survivor count [2] was 4 of 6, the survivor count [3] was 5 of 6 and the survivor count [1] was 4 of 6.
For `COc1ccc(Cl)cc1Cn1ccnc1`, the survivor count [4] was 0 of 6.
In the case of `c1ccc(Cc2ncnc3nc[nH]c23)cc1`, the T/C (dose: 40.0 mg/kg/injection, schedule: Q01DX009 (ip), vehicle: saline with Tween-80) is reported as 127 % of control.
In the case of `Cc1ccc(C(=O)C[n+]2ccccc2)c(O)c1`, the survivor count [4] is reported as 2 of 6.
`CCCOC1CC(C)(O)Cc2cc3c(c(O)c21)C(=O)c1c(O)cc2c(c1C3=O)OC1OC2(C)C(O)C(N(C)C)C1O` (configuration not stated) was tested, and the T/C (dose: 1.56 mg/kg/injection, schedule: Q01DX009 (ip), vehicle: other) was 140 % of control, the T/C (dose: 3.13 mg/kg/injection, schedule: Q01DX009 (ip), vehicle: other) was 126 % of control and the T/C (dose: 6.25 mg/kg/injection, schedule: Q01DX009 (ip), vehicle: other) was 134 and 145 % of control. For the same molecule, the T/C [5] was 140 % of control, the survivor count [5] was 6 of 6 and the survivor count (dose: 25.0 mg/kg/injection, schedule: Q01DX009 (ip), vehicle: other) was 0 of 6 and 2 of 6.
`COc1cc(CCN)ccc1OCc1ccccc1` was tested, and the survivor count [6] was 2 of 6.
For `Oc1nc(-c2ccccc2)sc1-c1ccc(Cl)cc1`, the survivor count [2] was 6 of 6 and the survivor count [3] was 6 of 6.
For `CNC(=O)OC1CC2CCCCC2C([N+](C)(C)C)C1` (configuration not stated), the survivor count (dose: 100.0 mg/kg/injection, schedule: Q01DX009 (ip), vehicle: saline) was 0 of 6 and the survivor count [6] was 0 of 6.
`O=NN(CCCl)C(=O)N(CCCl)C(=O)Oc1c(Cl)cc(Cl)cc1Cl` was tested, and the T/C (dose: 25.0 mg/kg/injection, schedule: Q01DX001 (ip), vehicle: saline with Tween-80) was 131 % of control and the T/C (dose: 50.0 mg/kg/injection, schedule: Q01DX001 (ip), vehicle: saline with Tween-80) was 136 and 140 % of control.
With `CC[NH-].CC[NH-].[Cl][Pt+2][Cl]` the T/C (dose: 6.25 mg/kg/injection, schedule: Q01DX009 (ip), vehicle: suspension in saline) was 134 % of control, the survivor count (dose: 25.0 mg/kg/injection, schedule: Q01DX009 (ip), vehicle: saline) was 6 of 6 and the survivor count (dose: 25.0 mg/kg/injection, schedule: Q01DX009 (ip), vehicle: suspension in saline) was 6 of 6.
`CC1=CC(=O)C(O)C2(C)C1CC1OC(=O)C(OC(=O)CC(C)(C)O)C3C(C)C(O)C4(O)OCC13C42` (configuration not stated) was tested, and the T/C (dose: 1.0 mg/kg/injection, schedule: Q01DX009 (ip), vehicle: saline + alcohol) was 125 % of control, the T/C (dose: 2.0 mg/kg/injection, schedule: Q01DX009 (ip), vehicle: saline + alcohol) was 130 % of control and the T/C (dose: 4.0 mg/kg/injection, schedule: Q01DX009 (ip), vehicle: saline + alcohol) was 134 and 137 % of control [5 of 6 alive]. For the same molecule, the survivor count (dose: 8.0 mg/kg/injection, schedule: Q01DX009 (ip), vehicle: saline + alcohol) was 1 of 6.
In the case of `FC(F)(F)c1ccc(NC(=S)SCc2ccc3c(c2)OCO3)cc1`, the survivor count (dose: 200.0 mg/kg/injection, schedule: Q01DX009 (ip), vehicle: suspension in saline) is reported as 5 of 6.
In the case of `CCCCCCCCCCCCCCCC(=O)N(CCCCN(C)C)CCCCN(C)C`, the survivor count (dose: 2.0 mg/kg/injection, schedule: Q01DX009 (ip), vehicle: saline) is reported as 2 of 6, the survivor count (dose: 4.0 mg/kg/injection, schedule: Q01DX009 (ip), vehicle: saline) is reported as 0 of 6 and the survivor count (dose: 8.0 mg/kg/injection, schedule: Q01DX009 (ip), vehicle: saline) is reported as 0 of 6.
With `CCCCCCCCCC[N+](C)([O-])CCCCCC[N+](C)([O-])CCCCCCCCCC` (configuration not stated) the survivor count [7] was 0 of 6.
With `COC1=CC(=O)C(C2OC(=O)C(Cl)=C2Cl)=CC1=O` (configuration not stated) the survivor count [8] was 2 of 6.
For `O=C(OC1C(O)OC2COC(=O)c3cc(O)c(O)c(O)c3-c3c(cc(O)c(O)c3O)C(=O)OC2C1O)c1cc(O)c(O)c(O)c1` (configuration not stated), the survivor count (dose: 30.0 mg/kg/injection, schedule: Q01DX009 (ip), vehicle: saline with Tween-80) was 6 of 6.
With `O=C1OCC/C1=C/O/C=C1\CCOC1=O` the survivor count [4] was 3 of 6.
For `N#Cc1c(=O)n(CCO)nc2c3ccccc3c3ccccc3c12`, the survivor count (dose: 400.0 mg/kg/injection, schedule: Q04DX002 (ip), vehicle: saline with Tween-80) was 6 of 6.
`COc1cc(O)c2c(c1)C(O)C(O)CC1OC1C(=O)/C=C/CC(C)OC2=O` (configuration not stated) was tested, and the survivor count [9] was 4 of 6, the survivor count [10] was 0 of 6 and the survivor count (dose: 100.0 mg/kg/injection, schedule: Q01DX005 (ip), vehicle: saline with Tween-80) was 0 of 6. For the same molecule, the survivor count [8] was 0 of 6.
With `CC1CN1P1(N2CC2C)=NP(N2CC2C)(N2CC2C)=NP(N2CC2C)(N2CC2C)=N1` (configuration not stated) the T/C (dose: 12.5 mg/kg/injection, schedule: Q01DX009 (ip), vehicle: saline with Tween-80) was 133 % of control, the T/C (dose: 25.0 mg/kg/injection, schedule: Q01DX009 (ip), vehicle: saline with Tween-80) was 145 % of control and the T/C (dose: 44.0 mg/kg/injection, schedule: Q04DX003 (ip), vehicle: saline) was 136 % of control. For the same molecule, the T/C (dose: 50.0 mg/kg/injection, schedule: Q04DX003 (ip), vehicle: saline) was 137 % of control, the survivor count (dose: 150.0 mg/kg/injection, schedule: Q04DX003 (ip), vehicle: saline) was 6 of 6 and the survivor count [1] was 4 of 6.
With `COc1ccc(-n2cnc3c(cnn3C)c2=O)cc1` the survivor count (dose: 240.0 mg/kg/injection, schedule: Q01DX005 (ip), vehicle: Klucel (hydroxypropylcellulose) (HPC)) was 5 of 6.
In the case of `Cc1nc2c([N+](=O)[O-])c(N3CCN(C)CC3)c([N+](=O)[O-])cc2[nH]1`, the survivor count (dose: 100.0 mg/kg/injection, schedule: Q04DX003 (ip), vehicle: saline with Tween-80) is reported as 4 of 6, the survivor count [7] is reported as 0 of 6 and 2 of 6 and the survivor count (dose: 400.0 mg/kg/injection, schedule: Q04DX003 (ip), vehicle: saline with Tween-80) is reported as 0 of 6.
For `FC(F)(F)c1ccc2c(c1)N=C(NNC1=Nc3cc(C(F)(F)F)ccc3SC1)CS2`, the survivor count (dose: 60.0 mg/kg/injection, schedule: Q01DX005 (ip), vehicle: saline with Tween-80) was 6 of 6 (2×), the survivor count (dose: 120.0 mg/kg/injection, schedule: Q01DX005 (ip), vehicle: saline with Tween-80) was 6 of 6 and the survivor count [4] was 6 of 6.
For `CCNCCNc1cc(O)c2c(c1O)C(=O)c1ccccc1C2=O`, the T/C (dose: 200.0 mg/kg/injection, schedule: Q01DX005 (ip), vehicle: Klucel (hydroxypropylcellulose) (HPC)) was 128 % of control [4 of 6 alive].
With `CC1(C)C=Cc2cc3c(cc2O1)OC[C@H]1c2cc4c(cc2O[C@@H]31)OCO4` the survivor count (dose: 100.0 mg/kg/injection, schedule: Q04DX002 (ip), vehicle: Klucel (hydroxypropylcellulose) (HPC)) was 6 of 6 and the survivor count (dose: 200.0 mg/kg/injection, schedule: Q04DX002 (ip), vehicle: Klucel (hydroxypropylcellulose) (HPC)) was 6 of 6.
In the case of `C1=C(CC2=C[P+](c3ccccc3)(c3ccccc3)C=C(c3ccccc3)O2)OC(c2ccccc2)=C[P+]1(c1ccccc1)c1ccccc1`, the T/C (dose: 1.5 mg/kg/injection, schedule: Q01DX005 (ip), vehicle: saline with Tween-80) is reported as 125 % of control, the T/C (dose: 1.5 mg/kg/injection, schedule: Q01DX005 (ip), vehicle: saline) is reported as 127 % of control and the T/C (dose: 3.0 mg/kg/injection, schedule: Q01DX005 (ip), vehicle: saline with Tween-80) is reported as 125 % of control [4 of 5 alive]. The survivor count (dose: 6.0 mg/kg/injection, schedule: Q01DX005 (ip), vehicle: saline with Tween-80) was 0 of 5, the survivor count (dose: 6.0 mg/kg/injection, schedule: Q01DX005 (ip), vehicle: saline) was 2 of 5 and the survivor count (dose: 12.5 mg/kg/injection, schedule: Q01DX005 (ip), vehicle: saline with Tween-80) was 4 of 5. The survivor count [9] was 0 of 5 and the survivor count [10] was 0 of 5.
With `C[n+]1ccccc1-c1ccc[n+](CCCCC[n+]2cccc(-c3cccc[n+]3C)c2)c1` the survivor count (dose: 200.0 mg/kg/injection, schedule: Q01DX005 (ip), vehicle: saline) was 0 of 6.
